Test results taken from paper PMC10415149.
Changes are numbered by the printed parent chain. For some assays here: Negatives hold for the conditions tested. For some assays here: Where a protein sequence is shown, tags need not be part of it. For some assays here: Construct, isoform or probe ends are uncertain for at least one entry. For some assays here: A weaker result is weaker than the reference pair of the same experiment. For some assays here: At least one verdict rests on a figure or table, not on a statement of the authors.

Chains of the proteins cited; added tags and fusions are not shown. Chains listed by the source or under a name are the forms on record and can include a tag or linker.
PrimPol1-475 (RBM deleted) + RPA, one chain, as listed by the source, stated change not applied, chain 2 of 3: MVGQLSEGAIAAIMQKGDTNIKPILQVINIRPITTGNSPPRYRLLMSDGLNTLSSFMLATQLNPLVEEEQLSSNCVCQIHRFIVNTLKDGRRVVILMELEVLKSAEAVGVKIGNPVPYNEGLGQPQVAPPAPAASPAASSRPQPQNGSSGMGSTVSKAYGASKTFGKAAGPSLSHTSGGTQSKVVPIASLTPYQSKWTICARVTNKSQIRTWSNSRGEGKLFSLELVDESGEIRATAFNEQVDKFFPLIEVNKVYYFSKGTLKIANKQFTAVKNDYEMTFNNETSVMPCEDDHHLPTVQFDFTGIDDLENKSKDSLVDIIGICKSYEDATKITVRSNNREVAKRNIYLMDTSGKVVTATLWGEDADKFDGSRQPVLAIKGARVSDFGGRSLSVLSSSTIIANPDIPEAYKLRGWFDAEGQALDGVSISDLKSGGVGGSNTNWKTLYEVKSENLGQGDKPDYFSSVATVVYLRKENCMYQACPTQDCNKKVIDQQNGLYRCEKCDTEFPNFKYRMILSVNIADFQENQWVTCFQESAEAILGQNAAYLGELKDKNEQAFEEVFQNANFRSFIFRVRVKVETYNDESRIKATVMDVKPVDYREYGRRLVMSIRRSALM
PrimPol1-475 (RBM deleted) + RPA, one chain, as listed by the source, stated change not applied, chain 3 of 3: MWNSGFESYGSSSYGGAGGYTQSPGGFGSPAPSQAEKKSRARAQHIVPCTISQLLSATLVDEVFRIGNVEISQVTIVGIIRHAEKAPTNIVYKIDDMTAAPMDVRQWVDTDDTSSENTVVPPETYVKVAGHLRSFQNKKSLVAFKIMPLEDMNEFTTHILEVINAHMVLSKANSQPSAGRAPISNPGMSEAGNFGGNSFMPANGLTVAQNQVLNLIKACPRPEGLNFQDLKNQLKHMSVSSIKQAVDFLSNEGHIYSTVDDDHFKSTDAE
PrimPol1-475 (RBM deleted) + RPA, one chain, as listed by the source, stated change not applied, chain 4 of 3: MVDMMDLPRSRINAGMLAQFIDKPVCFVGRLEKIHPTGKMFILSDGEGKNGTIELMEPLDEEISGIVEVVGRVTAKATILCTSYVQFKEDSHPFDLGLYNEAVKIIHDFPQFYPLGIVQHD

Key:
Assay in all cases: EMSA
[1] = test system: PrimPol1-475 (RBM deleted) + RPA; conditions: PrimPol1-475 does not join preformed RPA:DNA, 1 mM Mn2+, ATP, dNTPs, 8 C; EMSA: 40 mM HEPES pH 7.0, 50 mM KCl, 1 mM DTT, 5% glycerol, 0.1 mg/ml BSA, 1 mM MnCl2, 300 nM DNA, 24 C 20 min then ice (RPA assays: 50 nM DNA, 25 nM RPA, 8 C); recombinant protein; protein details: N-terminal SUMO-HIS10; label: 32P; single-stranded DNA
[2] = test system: RPA (Homo sapiens); conditions: RPA preincubated with DNA, 8 C; EMSA: 40 mM HEPES pH 7.0, 50 mM KCl, 1 mM DTT, 5% glycerol, 0.1 mg/ml BSA, 1 mM MnCl2, 300 nM DNA, 24 C 20 min then ice (RPA assays: 50 nM DNA, 25 nM RPA, 8 C); recombinant protein; label: 32P; single-stranded DNA
[3] = molecular target: T1, PrimPol WT (Homo sapiens) (UniProt Q96LW4); conditions: EMSA: 40 mM HEPES pH 7.0, 50 mM KCl, 1 mM DTT, 5% glycerol, 0.1 mg/ml BSA, 1 mM MnCl2, 300 nM DNA, 24 C 20 min then ice (RPA assays: 50 nM DNA, 25 nM RPA, 8 C), recombinant protein, residues 1-560, protein details: N-terminal SUMO-HIS10
T1 sequence (looked up): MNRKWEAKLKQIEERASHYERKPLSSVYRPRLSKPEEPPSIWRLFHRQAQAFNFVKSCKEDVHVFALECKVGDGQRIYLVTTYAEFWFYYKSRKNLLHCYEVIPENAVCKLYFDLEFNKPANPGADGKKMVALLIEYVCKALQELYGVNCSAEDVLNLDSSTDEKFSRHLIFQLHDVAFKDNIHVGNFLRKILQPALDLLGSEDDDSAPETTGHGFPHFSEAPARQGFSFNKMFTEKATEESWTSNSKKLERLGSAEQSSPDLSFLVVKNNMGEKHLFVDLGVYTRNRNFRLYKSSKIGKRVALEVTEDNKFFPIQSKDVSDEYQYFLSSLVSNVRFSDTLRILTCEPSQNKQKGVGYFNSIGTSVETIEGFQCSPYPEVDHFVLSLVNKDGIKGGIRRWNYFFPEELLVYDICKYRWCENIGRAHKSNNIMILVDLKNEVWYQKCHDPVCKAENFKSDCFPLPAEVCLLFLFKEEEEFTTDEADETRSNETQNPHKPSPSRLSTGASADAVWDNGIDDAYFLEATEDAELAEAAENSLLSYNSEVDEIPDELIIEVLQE

[4] = molecular target: T2, PrimPol1-475 (RBM deleted) (Homo sapiens) (UniProt Q96LW4); conditions: EMSA: 40 mM HEPES pH 7.0, 50 mM KCl, 1 mM DTT, 5% glycerol, 0.1 mg/ml BSA, 1 mM MnCl2, 300 nM DNA, 24 C 20 min then ice (RPA assays: 50 nM DNA, 25 nM RPA, 8 C), recombinant protein, residues 1-475, protein details: N-terminal SUMO-HIS10
T2 sequence (looked up): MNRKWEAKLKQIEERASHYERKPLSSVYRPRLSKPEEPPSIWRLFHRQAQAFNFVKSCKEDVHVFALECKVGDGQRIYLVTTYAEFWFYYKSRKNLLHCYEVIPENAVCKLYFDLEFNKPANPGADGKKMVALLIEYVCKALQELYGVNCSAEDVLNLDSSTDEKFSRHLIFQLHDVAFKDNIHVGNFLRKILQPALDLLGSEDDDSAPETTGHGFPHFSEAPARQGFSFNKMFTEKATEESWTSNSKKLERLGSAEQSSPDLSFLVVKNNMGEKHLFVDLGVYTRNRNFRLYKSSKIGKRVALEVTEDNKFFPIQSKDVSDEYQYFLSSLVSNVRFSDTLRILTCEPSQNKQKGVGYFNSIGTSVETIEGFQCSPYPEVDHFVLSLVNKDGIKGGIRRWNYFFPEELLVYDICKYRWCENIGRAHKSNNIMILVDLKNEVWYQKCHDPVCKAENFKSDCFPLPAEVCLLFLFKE

[5] = molecular target: T3, PrimPol R424A (Homo sapiens) (UniProt Q96LW4); conditions: 1 mM Mn2+; primer 5'-triphosphate; primer nt 1 is ribo-A, rest DNA; EMSA: 40 mM HEPES pH 7.0, 50 mM KCl, 1 mM DTT, 5% glycerol, 0.1 mg/ml BSA, 1 mM MnCl2, 300 nM DNA, 24 C 20 min then ice (RPA assays: 50 nM DNA, 25 nM RPA, 8 C); recombinant protein; residues 1-560; protein details: N-terminal SUMO-HIS10; label: Cy5 at 5' of template; letters put together from the description
T3 sequence (looked up): T1 sequence (looked up) with R424A

[6] = molecular target: T4, PrimPol R417A (Homo sapiens) (UniProt Q96LW4); conditions: 1 mM Mn2+; primer 5'-triphosphate; primer nt 1 is ribo-A, rest DNA; EMSA: 40 mM HEPES pH 7.0, 50 mM KCl, 1 mM DTT, 5% glycerol, 0.1 mg/ml BSA, 1 mM MnCl2, 300 nM DNA, 24 C 20 min then ice (RPA assays: 50 nM DNA, 25 nM RPA, 8 C); recombinant protein; residues 1-560; protein details: N-terminal SUMO-HIS10; label: Cy5 at 5' of template; letters put together from the description
T4 sequence (looked up): T1 sequence (looked up) with R417A

[7] = molecular target: T5, PrimPol1-363 (NTD) (Homo sapiens) (UniProt Q96LW4); conditions: 1 mM Mn2+; EMSA: 40 mM HEPES pH 7.0, 50 mM KCl, 1 mM DTT, 5% glycerol, 0.1 mg/ml BSA, 1 mM MnCl2, 300 nM DNA, 24 C 20 min then ice (RPA assays: 50 nM DNA, 25 nM RPA, 8 C); recombinant protein; residues 1-363; protein details: N-terminal SUMO-HIS10; label: 5' 32P on Primer-18
T5 sequence (looked up): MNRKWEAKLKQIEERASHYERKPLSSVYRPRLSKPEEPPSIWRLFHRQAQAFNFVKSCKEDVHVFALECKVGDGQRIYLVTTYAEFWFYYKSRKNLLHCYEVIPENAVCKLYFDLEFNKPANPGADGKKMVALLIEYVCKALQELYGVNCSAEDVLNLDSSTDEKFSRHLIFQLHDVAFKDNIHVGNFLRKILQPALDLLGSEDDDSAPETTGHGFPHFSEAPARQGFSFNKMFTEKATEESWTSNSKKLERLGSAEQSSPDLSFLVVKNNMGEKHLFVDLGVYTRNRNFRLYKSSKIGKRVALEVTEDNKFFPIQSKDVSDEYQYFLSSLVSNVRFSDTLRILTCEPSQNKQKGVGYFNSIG

[8] = 1 mM Mn2+, primer 5'-triphosphate, primer nt 1 is ribo-A, rest DNA, label: Cy5 at 5' of template, letters put together from the description
[9] = 1 mM Mn2+ with ATP, dGTP, dTTP (5'ppp primer made in situ), label: 5' Cy5, single-stranded DNA

AAAAAAAAAAAAAAAAAAAAAAAAAAAAAAAAAAAAAAAAACCTGAAAAAAAAAA [Acctg55]
binding result [1]: no binding | binding result [2]: binds

AAAAAAAAAACCTGAAAAAAAAAA / AGGTTTTT [p-p-p-8/Cy5-Acctg24]
Kd [3, 8]: 780 nM | Kd [4, 8]: 110 nM

AAAAAAAAAACCTGAAAAAAAAAA / AGGTTTTTTTTT [p-p-p-12/Cy5-Acctg24]
Kd [5]: > 10000 nM | Kd [6]: > 10000 nM

GACTACATTTCATCTGGCTTGGGCTTCATCGTTGTCGCAGACCTGGTGGATACCG / CGGTATCCACCAGGTCTG [Template-55/Primer-18]
binding result [7]: binds

AAAAAAAAAACCTGAAAAAAAAAA [Cy5-Acctg24]
binding result [3, 9]: binds | binding result ([3]; 1 mM Mn2+, 1-3 uM protein, label: 5' Cy5, single-stranded DNA): no binding | binding result [4, 9]: binds

AAAAAAAAAACCTGAAAAAAAAAA / AGGTTTTTTT [p-p-p-10/template]
binding result ([3]; 1 mM Mn2+, 2 uM PrimPol, 8 C, primer 5'-triphosphate, primer nt 1 is ribo-A, rest DNA, letters put together from the description): binds more weakly
